This note sets out measurements from patent publication US7572832B2, “Non-hygroscopic L-carnitine salts” (Biolink Life Sciences, Inc., priority 2007, dated 2009).

Entries after “also recorded” stand apart in the source; their conditions may differ. Read-outs that look alike come from different tables or passages of the source.

The data set in a line: Odor and taste of the solid. The following applies: for taste: ingestion.

As for `CC(=O)[O-].CC(=O)[O-].C[N+](C)(C)C[C@H](O)CC(=O)[O-].[Ca+2]` [L-carnitine calcium acetate], the taste entry is on record as “no objectionable taste”. As for `C[N+](C)(C)C[C@H](O)CC(=O)[O-].O=C([O-])/C=C/C(=O)[O-].[Ca+2]` [L-carnitine calcium fumarate], the taste result is “objectionable odor and taste”. In addition, where the note is “calcium fumarate”, the odor entry was “objectionable odor; also recorded: distasteful “fishy” odor”.

Consider `CCC(=O)[O-].CCC(=O)[O-].C[N+](C)(C)C[C@H](O)CC(=O)[O-].[Ca+2]` [L-carnitine calcium propionate], for which the odor result is “very slight odor” and the taste result is listed as “no objectionable taste”. Regarding `C[N+](C)(C)C[C@H](O)CC(=O)[O-].O=C([O-])C(O)C(O)C(=O)[O-].[Ca+2]` [L-carnitine calcium tartrate], the odor entry is “distasteful “fishy” odor”. For L-carnitine calcium butyrate, the odor entry is “odorless” and the taste result was “somewhat bitter after-taste; also recorded: no objectionable taste but had a somewhat bitter aftertaste”.
